Article PMC4741798, “Imaging of carbonic anhydrase IX with an ^111In-labeled dual-motif inhibitor” (Oncotarget, 2015)
Further values from the same series stand in other lists.

System: SK-RC-52 xenografts
Test: Biodistribution in mice bearing SK-RC-52 xenografts
Format: in vivo
Conditions: 48 h + Block (co-injected 200 nmole of 1); n = 5
Procedure: Mice bearing SK-RC-52 xenografts within the lower left flank were injected intravenously with 740 kBq (20 μCi) of [^111In]XYIMSR-01 in 200 μL of PBS. For in vivo competition (binding specificity) studies, tumor-bearing mice were injected with 740 kBq (20 μCi) of [^111In]XYIMSR-01 and 200 nmole of 1 in 200 μL of PBS concurrently. At 1 h, 4 h, 8 h, 24 h and 48 h post-injection, mice were sacrificed by cervical dislocation and the blood was immediately collected by cardiac puncture. Heart, lungs, pancreas, spleen, fat, brain, muscle, small intestines, liver, stomach, kidney, urinary bladder, and tumor were collected. Each organ was weighed and the tissue radioactivity was measured with an automated gamma counter (1282 Compugamma CS, Pharmacia/LKBNuclear, Inc., Mt. Waverly, Vic. Australia). The percentage of injected dose per gram of tissue (% ID/g) was calculated by comparison with samples of a standard dilution of the initial dose. All measurements were corrected for radioactive decay.
Data were expressed as mean ± standard deviation (SD). Prism software (GraphPAD, San Diego, California) was used to determine statistical significance. Statistical significance was calculated using a paired t test. P-values < 0.0001 were considered significant.

CC(CCC(=O)N[C@@H](CC(=O)N[C@@H](CC(=O)N[C@@H](CCCCn1cc(CCCC(=O)Nc2nnc(S(N)(=O)=O)s2)nn1)C(=O)NCCOCCOCCNC(=O)CN1CCN(CC(=O)[O-])CCN(CC(=O)[O-])CCN(CC(=O)[O-])CC1)C(=O)O)C(=O)O)(c1ccc(O)cc1)c1ccc(O)cc1.[111In+3] [[^111In]XYIMSR-01]
Biodistribution: Brain: 0.03 ± 0.01 %ID/g
